From publication PMC6640053
Construct, isoform or probe ends are uncertain for at least one entry. A weaker result is weaker than the reference pair of the same experiment. Tags and fusion partners may be left off the protein sequences shown.

Target: T1, Lrp (C-terminal His6 as stated + cloned NdeI/XhoI in pET28a) (Escherichia coli K-12 (strain FW102 genomic DNA)) (UniProt P0ACJ0)
T1 sequence (looked up): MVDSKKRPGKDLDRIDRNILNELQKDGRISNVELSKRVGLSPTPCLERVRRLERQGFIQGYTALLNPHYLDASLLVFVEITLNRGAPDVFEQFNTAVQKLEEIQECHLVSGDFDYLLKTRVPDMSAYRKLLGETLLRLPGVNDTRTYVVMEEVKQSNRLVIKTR
Assay: EMSA
Conditions: 10 mM Tris-HCl pH 7.4, 5 mM MgCl2, 250 mM KCl, 2.5 mM CaCl2, 0.5 mM DTT, 2.5% glycerol, 37 C 25 min, L-Arg and/or L-Leu when indicated, recombinant protein, residues 1-164, protein details: His6 (stated C-terminal), label: 5'-32P single-end, probe letters rebuilt from the primers and the genome

Measured: binding result

CGGGATCCGTATTCCTTCCCTACTCCTGTCTGACCCTGAAACATCACTGTTCAGAGTCGCTACCCGTCACGATAGACCGAAATCATGAAGATTCACGGCGCGCAATGCCTGGGTCTACGGTGAGAAGACCGTTGCCTTGTGGCAGCTATCGACATCACGAATGGCGTCTGTCCACGCCATACGTAGATTTCACTAGCACGGTAAACATGGTATTTACATGCATGGTTATGCGCATATAAGAATACTGTTTTTTTTCTTCCTCGAATGTTTTCGCAAAACACCAGGGGATTGTCAAAGCAAAACATCGATTTTTAGTACAACATGCCAGATATTCATTAACAGGGGCGTTTATTCATCATTTAATCGGCTTATAAAGCGAATTCCG (double strand) [lrp control region]
binds more weakly: 7.0 mM L-leucine | 10 mM L-arginine + 10 mM L-leucine | 10 mM L-leucine
